The assay deals with Flag-pVHL (UniProt P40337). Description: affinity purification with mass spectrometry; Flag pull-down from HEK293T cells transfected with empty or Flag-pVHL vector for 24 hours; gradient gel, silver staining, bands excised for MS (LTQ Orbitrap Elite).

Chains of the proteins cited; added tags and fusions are not shown.
UniProt P40337: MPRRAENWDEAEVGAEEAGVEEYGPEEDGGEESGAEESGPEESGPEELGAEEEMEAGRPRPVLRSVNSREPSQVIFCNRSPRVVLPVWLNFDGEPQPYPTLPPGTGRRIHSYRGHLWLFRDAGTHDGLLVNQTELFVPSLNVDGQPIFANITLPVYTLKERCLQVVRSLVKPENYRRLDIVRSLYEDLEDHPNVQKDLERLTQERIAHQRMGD
UniProt Q7Z6Z7: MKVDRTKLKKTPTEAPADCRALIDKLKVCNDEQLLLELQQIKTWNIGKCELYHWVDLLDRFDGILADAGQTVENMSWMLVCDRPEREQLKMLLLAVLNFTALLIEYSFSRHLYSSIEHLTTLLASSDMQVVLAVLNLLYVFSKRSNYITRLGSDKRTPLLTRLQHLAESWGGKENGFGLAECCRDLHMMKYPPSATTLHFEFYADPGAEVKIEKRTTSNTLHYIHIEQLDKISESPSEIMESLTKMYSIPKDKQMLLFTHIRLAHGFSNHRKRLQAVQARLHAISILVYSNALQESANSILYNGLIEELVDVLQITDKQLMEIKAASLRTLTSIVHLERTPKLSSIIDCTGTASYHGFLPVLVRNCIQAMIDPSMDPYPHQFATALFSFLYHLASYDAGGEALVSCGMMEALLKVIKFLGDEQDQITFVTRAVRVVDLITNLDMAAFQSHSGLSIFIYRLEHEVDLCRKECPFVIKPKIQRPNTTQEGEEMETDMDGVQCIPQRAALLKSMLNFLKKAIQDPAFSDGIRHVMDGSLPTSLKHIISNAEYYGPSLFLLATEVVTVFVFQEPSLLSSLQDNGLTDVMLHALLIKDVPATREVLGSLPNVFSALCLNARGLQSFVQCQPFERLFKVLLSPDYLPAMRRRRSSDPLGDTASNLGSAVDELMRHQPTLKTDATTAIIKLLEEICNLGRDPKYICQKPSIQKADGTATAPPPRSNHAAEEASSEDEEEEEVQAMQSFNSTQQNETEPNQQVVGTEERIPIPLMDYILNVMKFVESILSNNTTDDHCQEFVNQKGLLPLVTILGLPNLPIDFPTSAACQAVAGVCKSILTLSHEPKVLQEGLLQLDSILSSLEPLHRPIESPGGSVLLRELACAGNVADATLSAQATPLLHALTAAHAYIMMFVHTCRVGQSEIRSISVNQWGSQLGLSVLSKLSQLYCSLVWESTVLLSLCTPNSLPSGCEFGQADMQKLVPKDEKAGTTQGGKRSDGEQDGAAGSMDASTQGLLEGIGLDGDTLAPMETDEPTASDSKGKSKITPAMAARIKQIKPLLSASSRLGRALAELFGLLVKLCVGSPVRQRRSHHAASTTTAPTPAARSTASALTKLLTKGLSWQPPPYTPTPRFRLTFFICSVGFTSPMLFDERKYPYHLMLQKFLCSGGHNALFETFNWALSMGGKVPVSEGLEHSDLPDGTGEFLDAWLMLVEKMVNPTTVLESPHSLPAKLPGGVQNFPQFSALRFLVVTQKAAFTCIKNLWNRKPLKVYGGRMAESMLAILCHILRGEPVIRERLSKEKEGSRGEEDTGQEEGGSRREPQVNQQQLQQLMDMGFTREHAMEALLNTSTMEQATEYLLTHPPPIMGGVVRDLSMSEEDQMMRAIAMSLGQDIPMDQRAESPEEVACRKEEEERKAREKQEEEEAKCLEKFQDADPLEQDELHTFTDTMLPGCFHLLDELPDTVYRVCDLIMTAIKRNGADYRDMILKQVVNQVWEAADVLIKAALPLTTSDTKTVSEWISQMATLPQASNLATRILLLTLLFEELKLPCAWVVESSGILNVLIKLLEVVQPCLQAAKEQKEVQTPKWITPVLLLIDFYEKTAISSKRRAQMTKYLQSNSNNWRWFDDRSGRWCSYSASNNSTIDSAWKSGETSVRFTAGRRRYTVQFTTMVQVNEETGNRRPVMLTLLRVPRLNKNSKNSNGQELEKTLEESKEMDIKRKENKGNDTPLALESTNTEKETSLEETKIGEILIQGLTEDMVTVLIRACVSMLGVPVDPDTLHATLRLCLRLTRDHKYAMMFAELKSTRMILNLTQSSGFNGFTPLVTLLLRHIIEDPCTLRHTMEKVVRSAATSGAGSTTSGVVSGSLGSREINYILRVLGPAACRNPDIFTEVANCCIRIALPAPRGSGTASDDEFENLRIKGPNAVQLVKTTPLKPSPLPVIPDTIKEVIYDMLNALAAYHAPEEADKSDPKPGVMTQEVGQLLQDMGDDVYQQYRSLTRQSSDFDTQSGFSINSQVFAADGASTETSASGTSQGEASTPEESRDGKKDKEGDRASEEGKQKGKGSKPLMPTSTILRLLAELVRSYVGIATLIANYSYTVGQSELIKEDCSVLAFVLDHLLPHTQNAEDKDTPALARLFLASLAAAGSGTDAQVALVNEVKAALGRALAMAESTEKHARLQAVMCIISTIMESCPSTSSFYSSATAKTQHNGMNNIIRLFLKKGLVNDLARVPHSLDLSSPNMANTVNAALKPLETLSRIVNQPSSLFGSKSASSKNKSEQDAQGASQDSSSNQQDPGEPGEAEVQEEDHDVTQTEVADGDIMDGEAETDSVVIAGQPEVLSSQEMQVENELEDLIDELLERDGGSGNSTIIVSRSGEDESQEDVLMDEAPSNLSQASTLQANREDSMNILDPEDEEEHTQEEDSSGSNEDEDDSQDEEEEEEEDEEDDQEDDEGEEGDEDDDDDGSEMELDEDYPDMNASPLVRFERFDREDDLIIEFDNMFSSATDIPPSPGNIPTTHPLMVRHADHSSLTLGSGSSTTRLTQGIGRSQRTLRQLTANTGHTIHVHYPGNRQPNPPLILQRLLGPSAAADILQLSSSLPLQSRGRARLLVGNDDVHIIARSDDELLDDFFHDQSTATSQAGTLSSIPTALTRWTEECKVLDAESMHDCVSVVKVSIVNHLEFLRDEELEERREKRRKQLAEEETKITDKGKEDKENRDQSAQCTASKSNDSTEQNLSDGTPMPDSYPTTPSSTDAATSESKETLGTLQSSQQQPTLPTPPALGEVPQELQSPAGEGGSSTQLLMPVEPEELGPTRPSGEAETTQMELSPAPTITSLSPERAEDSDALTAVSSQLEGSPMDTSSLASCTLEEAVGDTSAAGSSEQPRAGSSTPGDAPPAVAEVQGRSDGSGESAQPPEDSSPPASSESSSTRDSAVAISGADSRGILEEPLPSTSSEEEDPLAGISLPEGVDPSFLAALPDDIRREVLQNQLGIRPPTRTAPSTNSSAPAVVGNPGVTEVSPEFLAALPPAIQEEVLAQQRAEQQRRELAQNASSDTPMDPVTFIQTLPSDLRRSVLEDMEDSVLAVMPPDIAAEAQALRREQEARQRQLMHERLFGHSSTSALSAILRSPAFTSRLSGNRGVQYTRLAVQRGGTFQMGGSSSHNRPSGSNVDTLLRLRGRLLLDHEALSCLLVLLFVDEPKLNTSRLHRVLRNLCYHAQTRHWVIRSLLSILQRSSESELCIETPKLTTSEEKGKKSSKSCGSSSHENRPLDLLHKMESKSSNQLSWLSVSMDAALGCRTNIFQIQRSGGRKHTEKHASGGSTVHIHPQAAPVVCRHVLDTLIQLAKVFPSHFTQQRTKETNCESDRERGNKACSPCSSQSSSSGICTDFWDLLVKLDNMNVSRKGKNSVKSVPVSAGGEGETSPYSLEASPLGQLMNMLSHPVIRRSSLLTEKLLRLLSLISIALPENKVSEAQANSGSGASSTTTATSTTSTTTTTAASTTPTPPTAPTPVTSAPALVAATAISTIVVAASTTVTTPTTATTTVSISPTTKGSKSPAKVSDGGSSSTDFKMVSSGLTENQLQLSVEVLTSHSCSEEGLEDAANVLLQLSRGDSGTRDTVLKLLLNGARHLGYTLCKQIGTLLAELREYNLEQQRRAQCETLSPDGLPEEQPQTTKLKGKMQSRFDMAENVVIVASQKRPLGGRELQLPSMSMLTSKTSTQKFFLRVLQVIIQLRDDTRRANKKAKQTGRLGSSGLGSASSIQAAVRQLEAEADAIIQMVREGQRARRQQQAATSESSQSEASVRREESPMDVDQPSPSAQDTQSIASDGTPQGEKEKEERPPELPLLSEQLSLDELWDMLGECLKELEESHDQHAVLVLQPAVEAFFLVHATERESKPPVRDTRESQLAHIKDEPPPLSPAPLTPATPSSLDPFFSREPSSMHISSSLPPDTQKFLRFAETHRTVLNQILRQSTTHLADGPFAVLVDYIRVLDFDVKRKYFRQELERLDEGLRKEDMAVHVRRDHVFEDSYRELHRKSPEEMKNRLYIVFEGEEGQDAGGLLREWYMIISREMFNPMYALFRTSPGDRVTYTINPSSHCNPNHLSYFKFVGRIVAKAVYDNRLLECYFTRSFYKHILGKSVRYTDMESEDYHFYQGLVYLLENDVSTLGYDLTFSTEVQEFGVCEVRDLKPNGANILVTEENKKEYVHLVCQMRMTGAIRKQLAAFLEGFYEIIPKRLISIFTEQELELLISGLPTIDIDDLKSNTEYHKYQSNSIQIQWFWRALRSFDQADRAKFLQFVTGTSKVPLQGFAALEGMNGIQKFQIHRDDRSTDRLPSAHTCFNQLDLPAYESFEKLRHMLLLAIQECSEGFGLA

Results are given in words; binding and its absence hold for the method and conditions named. In cells and extracts the contact can be indirect. A yes stands for co-enrichment or nearness to the bait. Other partners may have been found.

As for “endogenous HUWE1 (HEK293T) (from UniProt Q7Z6Z7 1-4374) (enzyme)”, the binding result was “binds”. For “endogenous USP9X (from UniProt Q93008 1-2554) (enzyme)”, the binding result is “binds”.

The values above are taken from publication PMC5312400.
